Measured values taken from PubChem BioAssay AID248 (DTP/NCI, 2004).
The list shows only some results of the screen, not a fair sample: it is rich in T/C values a quarter to a half above the control, in often repeated tests (any T/C) and in doses without a T/C. Further doses and runs are listed elsewhere. T/C is the treated group as % of the vehicle group. Some entries give survivors of the animals treated and no T/C: the source holds a T/C of zero for them, seemingly a mark for toxic or unscored doses. Some doses without a T/C left all or most animals alive at the check, yet need not have been tolerated: survival well below the control is almost never listed, so the zero probably covers shortened survival too. Counts of survivors are from the toxicity check (mostly the fifth day) where no day follows; animals may have died later. Schedules are NCI's codes, read here as Q, the interval in days (D) or hours (H), X, the number of doses. Some doses were run more than once; the values are given in rising order. Some schedule codes hold Z or #, which are not explained here. Brackets with × give the number of equal values in this list. Where survival is the endpoint, this PubChem deposit counts one and a half times the control or more as active, and values a quarter to a half above the control carry no call in these data; other NCI protocols may use other cut-offs. Some T/C values carry the count of animals alive at the toxicity check (mostly the fifth day); where none is given, no animal had died by that day.

System: L1210 leukemia ip in BDF1 mice, survival T/C
Experiment: NCI In Vivo Anticancer Drug Screen. Data for tumor model L1210 Leukemia (intraperitoneal) in B6D2F1 (BDF1) mice
Conditions: T/C endpoint: mean survival time, higher T/C = longer survival
[1] = dose: 200.0 mg/kg/injection, schedule: Q01DX001 (ip), vehicle: saline
[2] = dose: 400.0 mg/kg/injection, schedule: Q01DX001 (ip), vehicle: saline
[3] = dose: 400.0 mg/kg/injection, schedule: Q01DX009 (ip), vehicle: Klucel (hydroxypropylcellulose) (HPC)
[4] = dose: 200.0 mg/kg/injection, schedule: Q04DX003 (ip), vehicle: Klucel (hydroxypropylcellulose) (HPC)
[5] = dose: 400.0 mg/kg/injection, schedule: Q04DX003 (ip), vehicle: Klucel (hydroxypropylcellulose) (HPC)

**Q.** With O=C(NCCCCCCCCCCNC(=O)N1CC1)N1CC1 as the molecule, how does the T/C (dose: 1.8 mg/kg/injection, schedule: Q01DX Z (ip), vehicle: carboxymethylcellulose (CMC)) read?
**A.** 149 % of control

**Q.** And the T/C (dose: 1.8 mg/kg/injection, schedule: Q01DX Z (ip), vehicle: saline)?
**A.** 148 % of control

**Q.** And the T/C (dose: 4.0 mg/kg/injection, schedule: Q01DX Z (ip), vehicle: carboxymethylcellulose (CMC))?
**A.** 126 % of control

**Q.** And the T/C (dose: 4.0 mg/kg/injection, schedule: Q01DX Z (ip), vehicle: saline)?
**A.** 131 % of control

**Q.** And the survivor count (dose: 6.0 mg/kg/injection, schedule: Q01DX Z (ip), vehicle: carboxymethylcellulose (CMC))?
**A.** 6 of 6

**Q.** And the T/C (dose: 7.0 mg/kg/injection, schedule: Q01DX001 (ip), vehicle: saline)?
**A.** 129 % of control

**Q.** What about the T/C (dose: 10.0 mg/kg/injection, schedule: Q01DX001 (ip), vehicle: saline) of the same molecule?
**A.** 144 % of control

**Q.** What about the T/C (dose: 15.0 mg/kg/injection, schedule: Q01DX001 (ip), vehicle: saline) of the same molecule?
**A.** 145 % of control [4 of 6 alive]

**Q.** And the survivor count (dose: 100.0 mg/kg/injection, schedule: Q01DX001 (ip), vehicle: saline)?
**A.** 0 of 4

**Q.** What about the survivor count [1] of the same molecule?
**A.** 0 of 4

**Q.** And the survivor count [2]?
**A.** 0 of 4

**Q.** For C(=NCC(CCN1CCCC1)(CCN1CCCC1)c1cccc2ccccc12)C(CCN1CCCC1)(CCN1CCCC1)c1cccc2ccccc12, which survivor count (dose: 20.0 mg/kg/injection, schedule: Q01DX009 (ip), vehicle: saline with Tween-80) is on record?
**A.** 0 of 6

**Q.** And the survivor count (dose: 25.0 mg/kg/injection, schedule: Q04DX002 (ip), vehicle: saline)?
**A.** 1 of 3

**Q.** And the survivor count (dose: 100.0 mg/kg/injection, schedule: Q01DX009 (ip), vehicle: saline with Tween-80)?
**A.** 0 of 6

**Q.** What about the survivor count (dose: 200.0 mg/kg/injection, schedule: Q01DX009 (ip), vehicle: saline with Tween-80) of the same molecule?
**A.** 0 of 6

**Q.** What about the survivor count (dose: 400.0 mg/kg/injection, schedule: Q01DX009 (ip), vehicle: saline with Tween-80) of the same molecule?
**A.** 0 of 6

**Q.** With CC(C)COC(=O)C1(N)CCCC1 as the molecule, how does the survivor count (dose: 30.0 mg/kg/injection, schedule: Q01DX009 (ip), vehicle: saline) read?
**A.** 0 of 6

**Q.** And the T/C (dose: 66.0 mg/kg/injection, schedule: Q01DX Z (ip), vehicle: saline)?
**A.** 125 % of control [5 of 6 alive]

**Q.** What about the T/C (dose: 100.0 mg/kg/injection, schedule: Q01DX009 (ip), vehicle: saline) of the same molecule?
**A.** 135 % of control

**Q.** And the T/C (dose: 100.0 mg/kg/injection, schedule: Q01DX Z (ip), vehicle: saline)?
**A.** 129 and 136 % of control

**Q.** And the T/C (dose: 150.0 mg/kg/injection, schedule: Q01DX009 (ip), vehicle: saline)?
**A.** 131 % of control

**Q.** Which survivor count (dose: 400.0 mg/kg/injection, schedule: Q04DX002 (ip), vehicle: Klucel (hydroxypropylcellulose) (HPC)) does the source give for Cn1nccc2c(=O)n(C)c(=O)nc1-2 here?
**A.** 0 of 3

**Q.** Which survivor count [2] does the source give for O=C1Sc2ccccc2C1=O here?
**A.** 2 of 6

**Q.** For O=C(Nc1nccs1)Nc1cc(C(F)(F)F)ccc1Cl, which survivor count (dose: 200.0 mg/kg/injection, schedule: Q01DX009 (ip), vehicle: carboxymethylcellulose (CMC)) is on record?
**A.** 0 of 3 and 4 of 6

**Q.** And the survivor count (dose: 400.0 mg/kg/injection, schedule: Q04DX002 (ip), vehicle: carboxymethylcellulose (CMC))?
**A.** 3 of 3 and 6 of 6

**Q.** How did the survivor count [3] turn out when Oc1cccc2c(NC(=S)Nc3ccccc3)cccc12 was run?
**A.** 4 of 6

**Q.** How did the survivor count (dose: 200.0 mg/kg/injection, schedule: Q01DX005 (ip), vehicle: saline with Tween-80) turn out when OC1CCCCCC2CC12 (stereo not given) was run?
**A.** 3 of 3

**Q.** And the survivor count (dose: 400.0 mg/kg/injection, schedule: Q01DX005 (ip), vehicle: saline with Tween-80)?
**A.** 3 of 3

**Q.** Which T/C (dose: 0.6 mg/kg/injection, schedule: Q01DX Z (ip), vehicle: saline) does the source give for COc1ccc2nc3cc(Cl)ccc3c(Nc3ccc(O)c(CN(CCCl)CCCl)c3)c2c1 here?
**A.** 126 % of control

**Q.** What about the T/C (dose: 1.2 mg/kg/injection, schedule: Q01DX Z (ip), vehicle: saline) of the same molecule?
**A.** 128 % of control

**Q.** And the T/C (dose: 2.4 mg/kg/injection, schedule: Q01DX Z (ip), vehicle: saline)?
**A.** 129 % of control

**Q.** What about the survivor count (dose: 15.0 mg/kg/injection, schedule: Q04DX003 (ip), vehicle: saline) of the same molecule?
**A.** 0 of 6

**Q.** And the survivor count (dose: 30.0 mg/kg/injection, schedule: Q04DX003 (ip), vehicle: saline)?
**A.** 2 of 6

**Q.** What about the survivor count (dose: 40.0 mg/kg/injection, schedule: Q01DX001 (ip), vehicle: saline) of the same molecule?
**A.** 3 of 4

**Q.** What about the survivor count (dose: 50.0 mg/kg/injection, schedule: Q04DX003 (ip), vehicle: saline) of the same molecule?
**A.** 1 of 6

**Q.** What about the survivor count (dose: 80.0 mg/kg/injection, schedule: Q01DX001 (ip), vehicle: saline) of the same molecule?
**A.** 2 of 4

**Q.** And the survivor count (dose: 100.0 mg/kg/injection, schedule: Q04DX003 (ip), vehicle: saline)?
**A.** 1 of 6

**Q.** And the survivor count [1]?
**A.** 3 of 4

**Q.** And the survivor count (dose: 200.0 mg/kg/injection, schedule: Q04DX003 (ip), vehicle: saline)?
**A.** 0 of 6

**Q.** And the survivor count [2]?
**A.** 0 of 4

**Q.** For O=C(Nc1ccc(Nc2ccccc2)cc1)Nc1ccccc1C(F)(F)F, which survivor count (dose: 100.0 mg/kg/injection, schedule: Q01DX009 (ip), vehicle: carboxymethylcellulose (CMC)) is on record?
**A.** 3 of 3

**Q.** What about the survivor count (dose: 200.0 mg/kg/injection, schedule: Q04DX003 (ip), vehicle: carboxymethylcellulose (CMC)) of the same molecule?
**A.** 6 of 6

**Q.** And the survivor count (dose: 400.0 mg/kg/injection, schedule: Q01DX009 (ip), vehicle: carboxymethylcellulose (CMC))?
**A.** 6 of 6

**Q.** With CCC(CC)(COC(C)=O)C[N+](C)(C)C as the molecule, how does the survivor count [2] read?
**A.** 2 of 6

**Q.** And the survivor count (dose: 400.0 mg/kg/injection, schedule: Q04DX003 (ip), vehicle: saline)?
**A.** 0 of 6

**Q.** Which survivor count (dose: 50.0 mg/kg/injection, schedule: Q01DX001 (ip), vehicle: saline) does the source give for Brc1ccc2c(c1)CCC2 here?
**A.** 2 of 4

**Q.** Which survivor count (dose: 100.0 mg/kg/injection, schedule: Q01DX009 (ip), vehicle: Klucel (hydroxypropylcellulose) (HPC)) does the source give for CC(C)C1=CC23CCC4C(C)(C(=O)O)CCCC4(C)C2CC1C1C(=O)OC(=O)C13 (stereo not given) here?
**A.** 0 of 6

**Q.** And the survivor count (dose: 100.0 mg/kg/injection, schedule: Q04DX003 (ip), vehicle: Klucel (hydroxypropylcellulose) (HPC))?
**A.** 4 of 6

**Q.** And the survivor count (dose: 200.0 mg/kg/injection, schedule: Q01DX009 (ip), vehicle: Klucel (hydroxypropylcellulose) (HPC))?
**A.** 0 of 6

**Q.** What about the survivor count [4] of the same molecule?
**A.** 0 of 6

**Q.** And the survivor count [3]?
**A.** 0 of 6 (2×)

**Q.** What about the survivor count [5] of the same molecule?
**A.** 0 of 6

**Q.** With CCN(CC)CCOc1cccc(O)c1 as the molecule, how does the survivor count [4] read?
**A.** 3 of 6

**Q.** And the survivor count (dose: 400.0 mg/kg/injection, schedule: Q01DX001 (ip), vehicle: Klucel (hydroxypropylcellulose) (HPC))?
**A.** 1 of 6

**Q.** What about the survivor count [5] of the same molecule?
**A.** 0 of 6
